Assay: general procedure: Fmoc solid-phase peptide synthesis; TCP-resin

Row | Substance | final HPLC purity (whole synthesis, RP-HPLC) | conjugation yield (conjugation step) | crude HPLC purity (conjugation step, RP-HPLC) | final HPLC purity (conjugation step, RP-HPLC)
1 | 3-(3-Azidopropylcarbamoyl)propanoyl-Tyr-Glu-Trp-Lys | 97% purity | – | – | –
2 | DOTA-Tyr-Glu-Trp-Lys derivative 26 | – | 51% | 76% purity | 95% purity
3 | cyclo[2,7]-3-(3-azidopropylcarbamoyl)propanoyl-D-Phe-Cys-Tyr-D-Trp-Lys-Thr-Cys-Thr-OH | 96% purity | – | – | –
4 | cyclo[2,7]-AoxAc-D-Phe-Cys-Tyr-D-Trp-Lys-Thr-Cys-Thr-OH | 97% purity | – | – | –
